Data as given in paper PMC11210931.
No constants are given. Whether binding was seen depends on the method and setting. Binding seen in cells or lysates may run through a third protein. Some results given as binding are weak or reduced against the parent protein; the word gives no strength.

Protein sequences, listed by entry. Tags and fused reporters are not part of them. Residues count along the entry.
UniProt P10909, residues 23-449: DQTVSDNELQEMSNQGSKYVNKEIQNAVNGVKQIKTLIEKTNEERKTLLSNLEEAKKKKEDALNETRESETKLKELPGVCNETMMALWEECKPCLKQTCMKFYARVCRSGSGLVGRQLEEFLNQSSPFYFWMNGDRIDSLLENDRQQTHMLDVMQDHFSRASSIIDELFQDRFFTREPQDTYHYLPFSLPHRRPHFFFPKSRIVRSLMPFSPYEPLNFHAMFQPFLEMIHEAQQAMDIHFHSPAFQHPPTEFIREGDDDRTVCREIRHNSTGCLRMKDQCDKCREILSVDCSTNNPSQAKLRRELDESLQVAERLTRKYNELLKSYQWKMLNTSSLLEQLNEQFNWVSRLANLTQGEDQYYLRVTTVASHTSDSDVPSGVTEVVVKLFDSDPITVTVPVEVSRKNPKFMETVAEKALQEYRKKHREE
UniProt Q07812: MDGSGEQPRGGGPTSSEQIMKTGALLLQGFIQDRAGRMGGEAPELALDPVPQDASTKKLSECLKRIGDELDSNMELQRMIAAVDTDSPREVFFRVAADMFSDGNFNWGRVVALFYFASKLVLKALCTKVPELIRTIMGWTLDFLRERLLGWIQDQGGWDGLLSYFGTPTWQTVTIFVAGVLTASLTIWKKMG

Assays:
[1] = target: CLU (clusterin), wild type, stably overexpressed in FaDu cells (UniProt P10909); test: co-IP; lysate of FaDu-CLU cells expressing wild-type or mLIR CLU, with/without cisplatin, in combination with BAX chelator (50 nM; 3 h); anti-CLU antibody on Dynabeads Protein A; CLU, LC3 and BAX detected by western blot
[2] = target: CLU (clusterin), endogenous in CAL-33 cells (human (endogenous in CAL-33)) (UniProt P10909); test: co-IP; lysate of cisplatin-treated CAL-33 cells, 350 ug protein; Dynabeads Protein A with anti-CLU, anti-LC3 or anti-BAX (6A7) antibody, overnight at 4 C; CLU, LC3 and BAX detected by western blot; normal IgG as negative control

- binding [1]: binds
- binding [2]: binds
Substance: BAX (conformation-altered BAX, detected by antibody clone 6A7) (from UniProt Q07812 1-192)
